In paper PMC2858655, “Structural and Functional Characterization of Human Peripheral Nervous System Myelin Protein P2” (PLoS ONE, 2010):
These are yes or no findings as the source states them, for the method shown.

By UniProt entry, the sequences of proteins in these tests, tags left out.
UniProt P02689: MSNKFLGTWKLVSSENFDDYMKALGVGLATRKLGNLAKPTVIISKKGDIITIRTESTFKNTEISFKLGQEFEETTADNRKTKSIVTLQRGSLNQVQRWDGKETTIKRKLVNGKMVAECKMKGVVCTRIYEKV

Tests used:
[1] = molecular target: recombinant human myelin P2 protein (human) (UniProt P02689); assay: condition: up to 4 mg/ml (methods); 4.4 mg/ml (legend of Figure 3); SAXS; 50 mM HEPES pH 7.5, 150 mM NaCl, 10% glycerol; concentrations up to 4 mg/ml; beamline X33, EMBL-Hamburg; both purified
[2] = molecular target: recombinant human myelin P2 protein (human) (UniProt P02689); assay: SEC; final gel filtration on Superdex 75 16/60 in 20 mM HEPES pH 7.5, 50 mM NaCl, 10% glycerol; single peak; apparent molecular weight 15 kDa; both purified

binding [1]: no binding
binding [2]: no binding
Substance: recombinant human myelin P2 protein (from UniProt P02689 1-132)
